{"source": "ChEMBL document CHEMBL4316593", "about": "(Eur J Med Chem, 2019)", "format_in_all_cases": "cell-based", "conditions_in_all_cases": "U-87MG ATCC", "key": {"[1]": {"assay": "Inhibition of RTK/PI3K/AKT/mTOR signaling in human U87 cells assessed as down regulation of ZFYVE16 gene expression at cytotoxic IC50 measured after 48 hrs relative to control"}, "[2]": {"assay": "Inhibition of RTK/PI3K/AKT/mTOR signaling in human U87 cells assessed as down regulation of SNHG12 gene expression at cytotoxic IC50 measured after 48 hrs relative to control"}, "[3]": {"assay": "Inhibition of RTK/PI3K/AKT/mTOR signaling in human U87 cells assessed as up regulation of serine/threonine kinase 36 gene expression at cytotoxic IC50 measured after 48 hrs relative to control"}, "[4]": {"assay": "Inhibition of RTK/PI3K/AKT/mTOR signaling in human U87 cells assessed as down regulation of NRGN gene expression at cytotoxic IC50 measured after 48 hrs relative to control"}, "[5]": {"assay": "Inhibition of RTK/PI3K/AKT/mTOR signaling in human U87 cells assessed as up regulation of STT3A gene expression at cytotoxic IC50 measured after 48 hrs relative to control"}, "[6]": {"assay": "Inhibition of RTK/PI3K/AKT/mTOR signaling in human U87 cells assessed as down regulation of TTI1 gene expression at cytotoxic IC50 measured after 48 hrs relative to control"}, "[7]": {"assay": "Inhibition of RTK/PI3K/AKT/mTOR signaling in human U87 cells assessed as up regulation of RPL3 gene expression at cytotoxic IC50 measured after 48 hrs relative to control"}, "[8]": {"assay": "Inhibition of RTK/PI3K/AKT/mTOR signaling in human U87 cells assessed as up regulation of VEGFB gene expression at cytotoxic IC50 measured after 48 hrs relative to control"}, "[9]": {"assay": "Inhibition of RTK/PI3K/AKT/mTOR signaling in human U87 cells assessed as up regulation of ANKRD29 gene expression at cytotoxic IC50 measured after 48 hrs relative to control"}, "[10]": {"assay": "Inhibition of RTK/PI3K/AKT/mTOR signaling in human U87 cells assessed as up regulation of haloacid dehalogenase like hydrolase domain containing 5 gene expression at cytotoxic IC50 measured after 48 hrs relative to control"}, "[11]": {"assay": "Inhibition of RTK/PI3K/AKT/mTOR signaling in human U87 cells assessed as down regulation of CYR61 gene expression at cytotoxic IC50 measured after 48 hrs relative to control"}, "[12]": {"assay": "Inhibition of RTK/PI3K/AKT/mTOR signaling in human U87 cells assessed as down regulation of PSMD11 gene expression at cytotoxic IC50 measured after 48 hrs relative to control"}, "[13]": {"assay": "Inhibition of RTK/PI3K/AKT/mTOR signaling in human U87 cells assessed as up regulation of gasdermin B gene expression at cytotoxic IC50 measured after 48 hrs relative to control"}, "[14]": {"assay": "Inhibition of RTK/PI3K/AKT/mTOR signaling in human U87 cells assessed as down regulation of WRAP53 gene expression at cytotoxic IC50 measured after 48 hrs relative to control"}, "[15]": {"assay": "Inhibition of RTK/PI3K/AKT/mTOR signaling in human U87 cells assessed as up regulation of CUX1 gene expression at cytotoxic IC50 measured after 48 hrs relative to control"}, "[16]": {"assay": "Inhibition of RTK/PI3K/AKT/mTOR signaling in human U87 cells assessed as down regulation of ATXN1L gene expression at cytotoxic IC50 measured after 48 hrs relative to control"}, "[17]": {"assay": "Inhibition of RTK/PI3K/AKT/mTOR signaling in human U87 cells assessed as up regulation of linker for activation of T-cells family member 2 gene expression at cytotoxic IC50 measured after 48 hrs relative to control"}, "[18]": {"assay": "Inhibition of RTK/PI3K/AKT/mTOR signaling in human U87 cells assessed as up regulation of ATP binding cassette subfamily A member 2 gene expression at cytotoxic IC50 measured after 48 hrs relative to control"}, "[19]": {"assay": "Inhibition of RTK/PI3K/AKT/mTOR signaling in human U87 cells assessed as down regulation of RFWD3 gene expression at cytotoxic IC50 measured after 48 hrs relative to control"}, "[20]": {"assay": "Inhibition of RTK/PI3K/AKT/mTOR signaling in human U87 cells assessed as up regulation of laminin subunit beta 2 gene expression at cytotoxic IC50 measured after 48 hrs relative to control"}, "[21]": {"assay": "Inhibition of RTK/PI3K/AKT/mTOR signaling in human U87 cells assessed as down regulation of CNEP1R1 gene expression at cytotoxic IC50 measured after 48 hrs relative to control"}, "[22]": {"assay": "Inhibition of RTK/PI3K/AKT/mTOR signaling in human U87 cells assessed as up regulation of GPI gene expression at cytotoxic IC50 measured after 48 hrs relative to control"}, "[23]": {"assay": "Inhibition of RTK/PI3K/AKT/mTOR signaling in human U87 cells assessed as up regulation of EMP3 gene expression at cytotoxic IC50 measured after 48 hrs relative to control"}, "[24]": {"assay": "Inhibition of RTK/PI3K/AKT/mTOR signaling in human U87 cells assessed as down regulation of BUB1 gene expression at cytotoxic IC50 measured after 48 hrs relative to control"}, "[25]": {"assay": "Inhibition of RTK/PI3K/AKT/mTOR signaling in human U87 cells assessed as down regulation of VPS25 gene expression at cytotoxic IC50 measured after 48 hrs relative to control"}, "[26]": {"assay": "Inhibition of RTK/PI3K/AKT/mTOR signaling in human U87 cells assessed as down regulation of CEP85L gene expression at cytotoxic IC50 measured after 48 hrs relative to control"}, "[27]": {"assay": "Inhibition of RTK/PI3K/AKT/mTOR signaling in human U87 cells assessed as down regulation of MCM6 gene expression at cytotoxic IC50 measured after 48 hrs relative to control"}, "[28]": {"assay": "Inhibition of RTK/PI3K/AKT/mTOR signaling in human U87 cells assessed as down regulation of GPCPD1 gene expression at cytotoxic IC50 measured after 48 hrs relative to control"}, "[29]": {"assay": "Inhibition of RTK/PI3K/AKT/mTOR signaling in human U87 cells assessed as down regulation of KLHL11 gene expression at cytotoxic IC50 measured after 48 hrs relative to control"}, "[30]": {"assay": "Inhibition of RTK/PI3K/AKT/mTOR signaling in human U87 cells assessed as down regulation of STX1A gene expression at cytotoxic IC50 measured after 48 hrs relative to control"}, "[31]": {"assay": "Inhibition of RTK/PI3K/AKT/mTOR signaling in human U87 cells assessed as down regulation of KLHL2 gene expression at cytotoxic IC50 measured after 48 hrs relative to control"}, "[32]": {"assay": "Inhibition of RTK/PI3K/AKT/mTOR signaling in human U87 cells assessed as down regulation of USP22 gene expression at cytotoxic IC50 measured after 48 hrs relative to control"}}, "note": "Further values from the same series stand in other lists."}
{"compound": "CC(=O)C(=NNc1ccccc1C#N)C(C)=O", "values": [{"measurement": "log2FC", "setting": "[1]", "value": -0.898}, {"measurement": "log2FC", "setting": "[2]", "value": -1.58}, {"measurement": "log2FC", "setting": "[3]", "value": 1.27}, {"measurement": "log2FC", "setting": "[4]", "value": -1.75}, {"measurement": "log2FC", "setting": "[5]", "value": 1.61}, {"measurement": "log2FC", "setting": "[6]", "value": -1.01}, {"measurement": "log2FC", "setting": "[7]", "value": 0.539}, {"measurement": "log2FC", "setting": "[8]", "value": 2.04}, {"measurement": "log2FC", "setting": "[9]", "value": 1.62}, {"measurement": "log2FC", "setting": "[10]", "value": 1.03}, {"measurement": "log2FC", "setting": "[11]", "value": -1.97}, {"measurement": "log2FC", "setting": "[12]", "value": -0.628}, {"measurement": "log2FC", "setting": "[13]", "value": 0.928}, {"measurement": "log2FC", "setting": "[14]", "value": -0.835}, {"measurement": "log2FC", "setting": "[15]", "value": 0.576}, {"measurement": "log2FC", "setting": "[16]", "value": -0.972}, {"measurement": "log2FC", "setting": "[17]", "value": 0.941}, {"measurement": "log2FC", "setting": "[18]", "value": 1.26}, {"measurement": "log2FC", "setting": "[19]", "value": -1.54}, {"measurement": "log2FC", "setting": "[20]", "value": 0.828}, {"measurement": "log2FC", "setting": "[21]", "value": -0.833}, {"measurement": "log2FC", "setting": "[22]", "value": 2.52}, {"measurement": "log2FC", "setting": "[23]", "value": 2.07}, {"measurement": "log2FC", "setting": "[24]", "value": -0.596}, {"measurement": "log2FC", "setting": "[25]", "value": -0.82}, {"measurement": "log2FC", "setting": "[26]", "value": -1.16}, {"measurement": "log2FC", "setting": "[27]", "value": -1.18}, {"measurement": "log2FC", "setting": "[28]", "value": -2}, {"measurement": "log2FC", "setting": "[29]", "value": -1.03}, {"measurement": "log2FC", "setting": "[30]", "value": -0.971}, {"measurement": "log2FC", "setting": "[31]", "value": -0.652}, {"measurement": "log2FC", "setting": "[32]", "value": -0.468}]}
